# Experimental data taken from PubChem BioAssay AID1487 (National Center for Advancing Translational Sciences (NCATS), 2009).
# “And” between values parts separate entries of the source, which are not always exact repeats. Equal entries are not always repeated. The list shows a part of the results. Shown are side measurements of this screen, not its main read-out; they come without a call. Most of these compounds were active or inconclusive in the main read-out, so they are no random draw. Potencies come from curve fits of mixed quality, noted in brackets.
# Experiment: qHTS Assay for Modulators of Lamin A Splicing
# Details: HeLa LMNA splicing GFP/RFP minigene ratio, 48 h
# Procedure, shortened: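 S3 HeLa cells stably expressing lamin A-EGFP splicing minigene plus DsRed2, 600 cells/well, 48 h compound exposure at 37C. Laser-scanning cytometry; analysed as GFP (500-530 nm)/RFP (575-640 nm) total intensity ratio; 0.5% DMSO vehicle.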
# [1] = measured here: GFP splicing reporter channel
# [2] = measured here: RFP viability control channel
SMILES,AC50 [1],AC50 [2]
O=C(O)c1ccccc1Nc1cccc(C(F)(F)F)c1,"0.00891 µM [rising, full curve, poor fit]","3.16 nM [rising, full curve, poor fit] and 3.55 µM [rising, partial curve, poor fit]"
O=C(CNC(=O)OCc1ccccc1)Nc1ccc(Br)cc1C(=O)c1ccccc1,"20 µM [falling, single point]","11.2 µM [falling, partial curve, poor fit]"
N#Cc1nn(-c2c(Cl)cc(C(F)(F)F)cc2Cl)c(N)c1S(=O)C(F)(F)F (stereo not drawn),–,"5.62 µM [rising, single point]"
COC(=O)C1=Nc2ccccc2/C1=C\c1c(O)n(-c2ccc(Br)cc2)c(=O)[nH]c1=O,–,"14.1 µM [rising, single point]"
COC(=O)N1CCN(C(=O)Cc2ccc(Cl)c(Cl)c2)C(CN2CCCC2)C1 (stereo not drawn),–,"5.62 µM [falling, partial curve, poor fit]"
NCC(O)c1ccc(O)cc1 (stereo not drawn),"0.000891 µM [falling, full curve, poor fit]","15.8 µM [rising, single point]"
C[N+]1(C)C2CCC1CC(OC(=O)C(CO)c1ccccc1)C2 (stereo not drawn),"0.00112 µM [rising, full curve, poor fit]",–
C[C@]12CC[C@H]3[C@@H](CCC4=CC(=O)CC[C@@]43C)[C@@H]1CC[C@@H]2O,"2 µM [rising, full curve]","5.62 µM [rising, partial curve]"
O=C(O)c1nn(Cc2ccc(Cl)c(Cl)c2)c2ccccc12,"6.31 µM [falling, single point]",–
c1ccc2c(c1)Nc1ccccc1S2,–,"0.000891 µM [falling, full curve, poor fit]"
C#CC1(O)C=CC2C3CCC4=CC(=O)CCC4C3CCC21CC (stereo not drawn),"14.1 µM [rising, single point]","10 µM [rising, partial curve]"
O=c1c2ccccc2[se]n1-c1ccccc1,"11.2 µM [falling, partial curve]","0.002 µM [falling, full curve, poor fit]"
COc1ccc(Cl)cc1NC(=O)c1sc2nc3c(cc2c1N)N1CCC3CC1,"1.41 µM [rising, partial curve]",–
C[C@H](CCC(=O)O)[C@H]1CC[C@H]2[C@@H]3C(=O)C[C@@H]4CC(=O)CC[C@]4(C)[C@H]3CC(=O)[C@]12C,"0.0398 µM [falling, full curve, poor fit]","0.708 µM [falling, partial curve, poor fit]"
O=C(COc1ccc(S(=O)(=O)N2CCOCC2)cc1)N1CCN(Cc2ccc3c(c2)OCO3)CC1,–,"20 µM [rising, single point]"
CN[C@@H](C)[C@H](O)c1ccccc1,"3.55 µM [falling, partial curve]","15.8 µM [falling, single point]"
C=CCN1CC[C@]23CCCCC2[C@H]1Cc1ccc(O)cc13 (stereo partly drawn),"10 µM [falling, partial curve] and 7.94 µM [falling, partial curve, poor fit]","14.1 µM [rising, single point]"
CCn1c(O)c(C=Nc2ccc(N3CCOCC3)c(Br)c2)c(=O)n(CC)c1=S,"35.5 µM [falling, single point]","35.5 µM [falling, single point]"
Cc1ccc(-c2nc3ccccc3c(=O)n2-c2cccc(O)c2)cc1,–,"1.26 µM [falling, full curve]"
CC12NC(Cc3ccccc31)c1ccccc12 (stereo not drawn),"5.62 µM [falling, partial curve, poor fit]","5.62 µM [falling, single point]"
CC(=O)O[C@H]1C[C@@H](O[C@@H]2[C@H](C)O[C@H](O[C@@H]3[C@H](C)O[C@H](O[C@@H]4CC[C@@]5(C)[C@@H](CC[C@]6(C)[C@]5(C)C[C@H](O)[C@]5(C)[C@@H](C7=CC(=O)OC7)CC[C@@]56O)C4)C[C@@H]3O)C[C@@H]2O)O[C@@H](C)[C@H]1O[C@H]1O[C@@H](CO)[C@@H](O)[C@@H](O)[C@@H]1O,"0.794 µM [falling, full curve]","0.631 µM [falling, full curve]"
CCS(=O)(=O)N1CCC(C(=O)N2CCC3(CC2)OCCO3)CC1,"25.1 µM [falling, single point]","35.5 µM [falling, single point]"
CCCCCCCCOC(=O)c1ccccc1C(=O)OCCCCCCCC,"20 µM [falling, partial curve, poor fit]","12.6 µM [falling, partial curve]"
CCOC(=O)CNc1ccc(C(=O)OCC)cc1[N+](=O)[O-],"0.891 µM [rising, partial curve]","0.0891 µM [rising, partial curve]"
Clc1ccc(CO[C@@H](Cn2ccnc2)c2ccc(Cl)cc2Cl)cc1,"10 µM [falling, partial curve]","7.94 µM [falling, single point]"
Nc1cc(Cl)c2nonc2c1[N+](=O)[O-],–,"12.6 µM [rising, partial curve]"
COCCCOc1ccnc(CS(=O)c2nc3ccccc3[nH]2)c1C (stereo not drawn),"0.00126 µM [falling, full curve, poor fit]","0.0282 µM [falling, partial curve, poor fit]"
CCOC(=O)C1(c2ccccc2)CCN(CC(=O)Nc2cccc3ccccc23)CC1,"35.5 µM [rising, single point]","31.6 µM [rising, single point]"
C[N+]1(C)[C@@H]2CC(OC(=O)[C@H](CO)c3ccccc3)C[C@H]1[C@@H]1O[C@@H]12 (stereo partly drawn),"0.00316 µM [falling, full curve, poor fit]",–
CCOP(=O)(OCC)/C(=N/OC(=O)c1ccccc1C)C(N)=O,–,"20 µM [rising, partial curve, poor fit]"

# Part of the list above in order of formula weight, low to high.
SMILES,AC50 [1],AC50 [2]
COCCCOc1ccnc(CS(=O)c2nc3ccccc3[nH]2)c1C (stereo not drawn),"0.00126 µM [falling, full curve, poor fit]","0.0282 µM [falling, partial curve, poor fit]"
N#Cc1nn(-c2c(Cl)cc(C(F)(F)F)cc2Cl)c(N)c1S(=O)C(F)(F)F (stereo not drawn),–,"5.62 µM [rising, single point]"
CC(=O)O[C@H]1C[C@@H](O[C@@H]2[C@H](C)O[C@H](O[C@@H]3[C@H](C)O[C@H](O[C@@H]4CC[C@@]5(C)[C@@H](CC[C@]6(C)[C@]5(C)C[C@H](O)[C@]5(C)[C@@H](C7=CC(=O)OC7)CC[C@@]56O)C4)C[C@@H]3O)C[C@@H]2O)O[C@@H](C)[C@H]1O[C@H]1O[C@@H](CO)[C@@H](O)[C@@H](O)[C@@H]1O,"0.794 µM [falling, full curve]","0.631 µM [falling, full curve]"
